According to PubChem BioAssay AID1347076 (National Center for Advancing Translational Sciences (NCATS), 2019):
Screen size: about 400,000 compounds; about 13,000 (3.2%) were called active. The inconclusive results got no clear call from the source; some entries with a clear call stand among them for comparison. The call rests on the fitted dose curve; in most records, active means well fitted cell-killing curve with a large enough effect; inconclusive means small, poorly fitted or top-dose-only effect, or effect the other way; inactive means flat fitted curve, though single readings scatter. Where the call is inconclusive, the potency comes from a doubtful curve fit.

Assay: qHTS assay for MDR1-selective chemotherapeutics: Primary screen using the drug-selected MDR subline cells KB-V1; further: nearly all actives have a fitted effect of over 60% in size
Conditions: KB-V1 MDR cells viability, CellTiter-Glo, 72 h; activity change, negative = cytotoxicity: at 46.1 µM (top of the series)
Summary of the method: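 Drug-selected KB-V1 cells, grown in DMEM lacking phenol red with 10% FBS, receive compound titrations; after three days at 37 degrees C, surviving cell ATP is quantified by CellTiter-Glo luminescence and responses normalized and curve-fitted.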
On the % scale 0 is the no-effect control and ±100 the full control effect; potency means the concentration at half of the fitted maximal effect.

Question: With COc1ccc(NC(=O)N2c3ccccc3CC2C)cc1OC (configuration not stated) as the compound, how does the Potency read?
Answer: inconclusive: 12.6 µM [cytotoxic, single point]

Question: Which “activity change, negative = cytotoxicity” value does the source give for Cc1c(C(=O)NCc2ccccc2)oc2ccc(S(=O)(=O)N3CCC4(CC3)OCCO4)cc12 here?
Answer: inactive: -10.1%

Question: Which Potency does the source give for CN1N=C(N)c2cn(C3OC(COP(=O)(O)O)C(O)C3O)c3ncnc1c23 (configuration not stated) here?
Answer: inconclusive: 1.46 µM [cytotoxic, full curve]

Question: For COc1ccc(C2NC(=O)NC(C)=C2C(=O)OC2CCCC(C)C2)cc1 (configuration not stated), which “activity change, negative = cytotoxicity” value is on record?
Answer: inactive: -3.87%

Question: For COC(=O)c1c(NC(=O)Cc2cccs2)sc(C(=O)N2CCCCC2)c1C, which Potency is on record?
Answer: active: 16.4 µM

Question: With COc1cc2cc(CNc3ccccc3)c(=O)n(CC(=O)Nc3ccccc3)c2cc1OC as the compound, how does the Potency read?
Answer: inconclusive: 8.2 µM [rising, partial curve]

Question: Which Potency does the source give for CCCCNc1c(-c2ccc(OC)c(SC3CCCCC3)c2)nc2cc(C)ccn12 here?
Answer: inconclusive: 20.6 µM [cytotoxic, single point]

Question: For CC(Oc1cccc(Cl)c1)C(=O)Nc1cc(S(=O)(=O)N2CCCCC2)ccc1N1CCOCC1 (configuration not stated), which Potency is on record?
Answer: inconclusive: 23.1 µM [cytotoxic, single point]

Question: Which Potency does the source give for CC(=O)Nc1ccccc1-c1nc2ccccc2nc1OCC(=O)c1ccc(Cl)cc1 here?
Answer: inconclusive: 29.1 µM [cytotoxic, single point]

Question: With CC(=O)Nc1cc(-c2ccccc2)ccc1O as the compound, how does the “activity change, negative = cytotoxicity” value read?
Answer: inactive: -1.54%

Question: With COc1cc(/C=C2\CC/C(=C\c3cc(OC)c(O)c(OC)c3)C2=O)cc(OC)c1O as the compound, how does the Potency read?
Answer: inconclusive: 25.9 µM [cytotoxic, single point]

Question: With COC(=O)C1=CN(Cc2ccc(OC)c(OC)c2)C=C(C(=O)OC)C1c1cccc(OC)c1OC as the compound, how does the “activity change, negative = cytotoxicity” value read?
Answer: inactive: 3.93%

Question: Which Potency does the source give for CCc1ccc(NC(=O)Cn2c(=O)n(CCCCC(=O)NCc3ccc4c(c3)OCO4)c(=O)c3ccccc32)cc1 here?
Answer: inconclusive: 29.1 µM [rising, partial curve, poor fit]

Question: With CC(NCc1ccccc1Cl)C(=O)Nc1ccc(S(=O)(=O)N2CCCC2)cc1 (configuration not stated) as the compound, how does the Potency read?
Answer: inconclusive: 11.6 µM [cytotoxic, partial curve]

Question: Which Potency does the source give for CC1(c2nc3ccccc3[nH]2)c2ccccc2C(=O)N1Cc1ccccc1 (configuration not stated) here?
Answer: inconclusive: 6.51 µM [cytotoxic, partial curve]

Question: With Cc1occc1-c1nnc(SCCCC(=O)c2ccc(F)cc2)n1C as the compound, how does the Potency read?
Answer: inconclusive: 18.4 µM [cytotoxic, single point]

Question: For CCn1ncc(NC(=S)NCCc2ccc(OC)c(OC)c2)c1C(N)=O, which “activity change, negative = cytotoxicity” value is on record?
Answer: inactive: -1.9%

Question: With Cn1cc(/C=N/n2cnc3scc(-c4ccc(Cl)cc4)c3c2=O)c2ccccc21 as the compound, how does the Potency read?
Answer: inconclusive: 0.731 µM [cytotoxic, full curve, poor fit]

Question: With CC(CN1CCCCC1)OC(=O)c1cc2ccccc2o1 (configuration not stated) as the compound, how does the Potency read?
Answer: inconclusive: 18.4 µM [rising, single point]

Question: For Cc1ccc(C2C(=O)N(C3CCC(C)CC3)CC(=O)N2C2CC2)cc1 (configuration not stated), which Potency is on record?
Answer: inconclusive: 1.84 µM [cytotoxic, full curve]

Question: For COc1cc(OC)cc(-c2n[nH]c(=S)n2-c2cc(OC)ccc2OC)c1, which Potency is on record?
Answer: inconclusive: 18.4 µM [cytotoxic, partial curve]

Question: Which Potency does the source give for CC(NC(=O)c1ccccc1Cl)NC(=O)c1ccccc1Cl here?
Answer: inconclusive: 3.66 µM [cytotoxic, partial curve, poor fit]

Question: Which Potency does the source give for CCN1C(=NCc2cc(OC)c(OC)c(OC)c2)N[C@@H](c2ccccc2)C(C(=O)OC)=C1C here?
Answer: inconclusive: 29.1 µM [rising, single point]

Question: For O=[N+]([O-])c1ccccc1C=NNC(=S)NN=Cc1ccccc1[N+](=O)[O-], which Potency is on record?
Answer: inconclusive: 29.1 µM [cytotoxic, single point]

Question: With CC(C)(C)n1nnnc1C(c1cc2ccccc2o1)N(CCC#N)Cc1ccccc1 (configuration not stated) as the compound, how does the Potency read?
Answer: inconclusive: 5.8 µM [cytotoxic, full curve]

Question: For CCn1c(SCC(N)=O)nnc1-c1cc2c(C)nn(-c3ccccc3)c2s1, which Potency is on record?
Answer: active: 13 µM

Question: With Cc1cnc2ccccc2c1/C=C/c1ccc(N(C)C)cc1 as the compound, how does the Potency read?
Answer: inconclusive: 29.1 µM [cytotoxic, single point]

Question: Which “activity change, negative = cytotoxicity” value does the source give for COC(=O)c1ccc2c(=O)n(CCCCCC(=O)N3CCN(c4ccc(F)cc4)CC3)c(=O)[nH]c2c1 here?
Answer: inactive: 0%

Question: With Cc1cc(-c2ccc3ccccc3c2)n2ncnc2n1 as the compound, how does the Potency read?
Answer: inconclusive: 29.1 µM [rising, single point]

Question: Which Potency does the source give for CC(C)(C)c1ccc(C(=O)Nc2ccc3c(c2)CCCN3C(=O)c2cccs2)cc1 here?
Answer: active: 20.6 µM

Question: With CCCOc1cccc(C(=O)N(Cc2ccccc2)C2CCS(=O)(=O)C2)c1 (configuration not stated) as the compound, how does the Potency read?
Answer: inconclusive: 4.61 µM [cytotoxic, partial curve, poor fit]

Question: Which Potency does the source give for CCOc1ccc(S(=O)(=O)N2CCCC(C(=O)Nc3cccc(C)c3)C2)cc1 (configuration not stated) here?
Answer: inconclusive: 5.8 µM [cytotoxic, partial curve]

Question: For C#CCNC(=O)C[C@@H]1C[C@@]2(C(=O)OC)CC(C)(C)CC=C2N(CCCCCCCC)C1=O, which activity change, negative = cytotoxicity is on record?
Answer: inconclusive: -31.1% [cytotoxic]

Question: Which Potency does the source give for COc1ccc(OC(C)C(=O)Nc2cccc([N+](=O)[O-])c2)cc1 (configuration not stated) here?
Answer: active: 16.4 µM

Question: For COc1ccc(S(=O)(=O)N2CCCCC2)cc1NS(=O)(=O)c1cc(Cl)ccc1Cl, which Potency is on record?
Answer: inconclusive: 9.2 µM [cytotoxic, partial curve, poor fit]

Question: With Cc1ccc(Nc2nc(N)nc(CN3CCN(Cc4ccc5c(c4)OCO5)CC3)n2)cc1Cl as the compound, how does the Potency read?
Answer: inconclusive: 3.66 µM [cytotoxic, full curve]

Question: For Cc1oc2nc(SCC(=O)NC3CCCCC3)nc(N)c2c1C, which Potency is on record?
Answer: inconclusive: 11.6 µM [cytotoxic, partial curve, poor fit]

Question: Which Potency does the source give for CCOc1cc(C(=O)Nc2ccccc2F)cc(Br)c1OCC here?
Answer: inconclusive: 10.3 µM [cytotoxic, partial curve]

Question: Which Potency does the source give for CC(C)CCSc1nc2ccccc2[nH]1 here?
Answer: inconclusive: 29.1 µM [cytotoxic, single point]

Question: Which Potency does the source give for CCNC(=S)Nc1ccc(Cl)cc1Cl here?
Answer: inconclusive: 20.6 µM [cytotoxic, single point]

Question: For CCc1nnc(NC(=O)c2ccc(COc3ccccc3)o2)s1, which Potency is on record?
Answer: active: 14.6 µM

Question: Which Potency does the source give for CCn1c(SCC(=O)N(C)c2ccccc2)nc2c([nH]c3ccccc32)c1=O here?
Answer: inconclusive: 1.3 µM [cytotoxic, partial curve, poor fit]
